Laboratory results reported in PMC8501971.
Results are given in words; binding and its absence hold for the method and conditions named. Binding seen in cells or lysates may run through a third protein. Binding can be weak; no strength is given. Where a sequence is shown, tags or fusion partners need not be part of it.

Biological target: glutathione S-transferase-EBNA-LP fusion protein (Epstein-Barr virus)
Assay: pull-down; HEK293T co-transfected with GST or GST-EBNA-LP and a Flag-tagged RBM protein, collected 48 h post-transfection; lysate in 20 mM Tris pH 8, 150 mM NaCl, 1 mM EDTA, 0.5% NP40; Glutathione-Sepharose 4B beads, 4 h at 4°C; RNAse A (10 mg/ml) in the fourth wash; blot with anti-Flag and …

B1: FLAG-tagged RBM6 (protein, UniProt P78332 1-1123)
chain: MWGDSRPANRTGPFRGSQEERFAPGWNRDYPPPPLKSHAQERHSGNFPGRDSLPFDFQGHSGPPFANVEEHSFSYGARDGPHGDYRGGEGPGHDFRGGDFSSSDFQSRDSSQLDFRGRDIHSGDFRDREGPPMDYRGGDGTSMDYRGREAPHMNYRDRDAHAVDFRGRDAPPSDFRGRGTYDLDFRGRDGSHADFRGRDLSDLDFRAREQSRSDFRNRDVSDLDFRDKDGTQVDFRGRGSGTTDLDFRDRDTPHSDFRGRHRSRTDQDFRGREMGSCMEFKDREMPPVDPNILDYIQPSTQDREHSGMNVNRREESTHDHTIERPAFGIQKGEFEHSETREGETQGVAFEHESPADFQNSQSPVQDQDKSQLSGREEQSSDAGLFKEEGGLDFLGRQDTDYRSMEYRDVDHRLPGSQMFGYGQSKSFPEGKTARDAQRDLQDQDYRTGPSEEKPSRLIRLSGVPEDATKEEILNAFRTPDGMPVKNLQLKEYNTGYDYGYVCVEFSLLEDAIGCMEANQGTLMIQDKEVTLEYVSSLDFWYCKRCKANIGGHRSSCSFCKNPREVTEAKQELITYPQPQKTSIPAPLEKQPNQPLRPADKEPEPRKREEGQESRLGHQKREAERYLPPSRREGPTFRRDRERESWSGETRQDGESKTIMLKRIYRSTPPEVIVEVLEPYVRLTTANVRIIKNRTGPMGHTYGFIDLDSHAEALRVVKILQNLDPPFSIDGKMVAVNLATGKRRNDSGDHSDHMHYYQGKKYFRDRRGGGRNSDWSSDTNRQGQQSSSDCYIYDSATGYYYDPLAGTYYDPNTQQEVYVPQDPGLPEEEEIKEKKPTSQGKSSSKKEMSKRDGKEKKDRGVTRFQENASEGKAPAEDVFKKPLPPTVKKEESPPPPKVVNPLIGLLGEYGGDSDYEEEEEEEQTPPPQPRTAQPQKREEQTKKENEEDKLTDWNKLACLLCRRQFPNKEVLIKHQQLSDLHKQNLEIHRKIKQSEQELAYLERREREGKFKGRGNDRREKLQSFDSPERKRIKYSRETDSDRKLVDKEDIDTSSKGGCVQQATGWRKGTGLGYGHPGLASSEEAEGRMRGPSVGASGRTSKRQSNETYRDAVRRVMFARYKELD
For B1, the binding was “binds”.
